# Measurements reported in the supplement of paper PMC9135407.
# “And” between values parts separate entries of the source, which are not always exact repeats. Equal values may be shown once. Where a name gives a salt, the structure may show the parent alone. ± gives the standard deviation of the averaged measurements. This is one part of the list. Part of the spread comes from offsets between plates or batches.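 Primary human stellate myofibroblasts activated in culture; inactivation shown by regained lipid droplets. Readout: fraction of Hoechst-counted cells exceeding a per-plate Bodipy threshold, duplicate wells, each plate with DMSO negative and nortriptyline positive controls. Hits: control-normalized score beyond the plate's top-tenth-percentile nortriptyline wells, or among its three best wells. Final well concentrations unstated.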
# Tested on: primary human hepatic stellate cells (donor 1)
# Assay: percent Bodipy-positive cells; higher = more lipid droplet accumulation
# Conditions: 48 h
# Experimental: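 Primary lipid accumulation screen in primary human hepatic stellate cell myofibroblasts (donor 1, passage 8) in 384-well plates. 100 nL of library compound was pin-transferred into 30 µL medium in duplicate, and cells were treated for 48 h. The 'Scaled' score combines distance from plate baseline, toxicity and reproducibility penalties, and is normalised to nortriptyline (positive) and DMSO (negative) controls on each plate. A hit is defined as scaled >0.85 or among the top 3 wells per plate.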
# [1] = library stock concentration: 10 mM
# [2] = library stock concentration: 400 uM
# [3] = library stock concentration: 80 uM
# [4] = library stock concentration: 2 mM
# [5] = library stock concentration: 3.33 mM
# [6] = library stock concentration: 1 mM
compound,measurement,setting,value
C=C[C@H]1CN2CC[C@H]1C[C@H]2[C@H](O)c1ccnc2ccc(OC)cc12 [Quinine],percent Bodipy-positive cells,library stock concentration: 6.2 mM,21.4 ± 0.69%
"O=C(/C=C/c1ccccc1)c1ccc(O[C@@H]2O[C@H](CO)[C@@H](O)[C@H](O)[C@H]2O)cc1O [2',4'-dihydroxychalcone 4'-glucoside]",percent Bodipy-positive cells,[1],20.4 ± 3.5%
COc1ccc(-c2ccc3ncc4c(c3c2)n(-c2ccc(N3CCNCC3)c(C(F)(F)F)c2)c(=O)n4C)cn1.O=C(O)/C=C\C(=O)O,percent Bodipy-positive cells,[2],97.5 ± 1.8%
CCCCCCCCCCCCCCCCn1cc[n+](Cc2ccccc2)c1C,percent Bodipy-positive cells,[3],13.3 ± 9.3%
same,percent Bodipy-positive cells,[2],16.4 ± 5.4%
same,percent Bodipy-positive cells,[4],17.8 ± 7.1%
same,percent Bodipy-positive cells,[1],100% and 94.9%
"CCCCCCCCCCCCCCCCn1cc[n+](Cc2ccccc2)c1C [eEF-2 Kinase Inhibitor, NH125]",percent Bodipy-positive cells,[5],35.3 ± 3.1%
CC[P](CC)(CC)=[Au][S][C@@H]1O[C@H](COC(C)=O)[C@@H](OC(C)=O)[C@H](OC(C)=O)[C@H]1OC(C)=O [Auranofin],percent Bodipy-positive cells,library stock concentration: 2.9 mM,99.62 ± 0.54%
N[C@@H](Cn1ccc(=O)n(Cc2ccccc2C(=O)O)c1=O)C(=O)O,percent Bodipy-positive cells,[1],6.4% and 4.55%
CCCCC[C@H](O)/C=C/[C@H]1[C@H](O)CC(=O)[C@@H]1C/C=C\CCCC(=O)O [Prostaglandin E2],percent Bodipy-positive cells,[6],22.4 ± 7.3%
same,percent Bodipy-positive cells,[1],6.94 ± 3%
CCCCC[C@H](O)/C=C/[C@H]1[C@H](O)CC(=O)[C@@H]1C/C=C\CCCC(=O)O [Prostaglandin  E2],percent Bodipy-positive cells,[6],11.4 ± 8.3%
CCCCC[C@H](O)/C=C/[C@H]1[C@H](O)CC(=O)[C@@H]1C/C=C\CCCC(=O)O [Dinoprostone],percent Bodipy-positive cells,library stock concentration: 5.7 mM,9.28 ± 1.2%
"CCCCC[C@H](O)/C=C/[C@@H]1[C@@H](C/C=C\CCCCCC(=O)O)[C@@H](O)C[C@H]1O [1a,1b-dihomo Prostaglandin F2.alpha.]",percent Bodipy-positive cells,[6],14.9 ± 3.7%
"CCCn1c(=O)c2[nH]c(C3CCCC3)nc2n(CCC)c1=O [8-Cyclopentyl-1,3-dipropylxanthine]",percent Bodipy-positive cells,[1],56.5 ± 6.8%
CCCn1c(=O)c2[nH]c(C3CCCC3)nc2n(CCC)c1=O,percent Bodipy-positive cells,[1],5.54 ± 0.22%
Cc1ccc(S(=O)(=O)/C=C/C#N)cc1,percent Bodipy-positive cells,[1],90.6 ± 1.3%
CC(=O)N[C@@H](CSC/C=C(\C)CC/C=C(\C)CC/C=C(\C)CCC=C(C)C)C(=O)O [N-acetyl-S-geranylgeranyl-L-Cysteine],percent Bodipy-positive cells,[6],9.46% and 13.3%
O=C(CCNNC(=O)c1ccncc1)NCc1ccccc1,percent Bodipy-positive cells,[1],8.07 ± 2.4%
O=C(CCNNC(=O)c1ccncc1)NCc1ccccc1 [Nialamide],percent Bodipy-positive cells,,12.4 ± 2.7%
same,percent Bodipy-positive cells,library stock concentration: 6.7 mM,7.84% and 14%
same,percent Bodipy-positive cells,[1],55.4 ± 3.9%
Cc1cnc(-c2ccccc2C(C)C)nc1NCc1ccc(-n2ccnn2)cc1,percent Bodipy-positive cells,[5],33.3 ± 6.8%
same,percent Bodipy-positive cells,[1],39.9 ± 12%
N/C(=N\C(=O)c1nc(Cl)c(N)nc1N)NCc1ccccc1 [Benzamil],percent Bodipy-positive cells,library stock concentration: 6.3 mM,35.3 ± 8.9%
N/C(=N\C(=O)c1nc(Cl)c(N)nc1N)NCc1ccccc1 [Benzamil hydrochloride],percent Bodipy-positive cells,,40.1 ± 18%
CSc1nc2cc(Cl)c(Oc3cccc(Cl)c3Cl)cc2[nH]1 [Triclabendazole],percent Bodipy-positive cells,[5],9.07 ± 2.2%
same,percent Bodipy-positive cells,[1],33 ± 10%
CSc1nc2cc(Cl)c(Oc3cccc(Cl)c3Cl)cc2[nH]1,percent Bodipy-positive cells,[1],9.97 ± 1.8%
Cl.O=C(CCCCCN1CCN(c2ccccc2-c2ccccc2)CC1)NC1CCCc2ccccc21 (stereo not given) [LP 12 hydrochloride hydrate],percent Bodipy-positive cells,[1],80.7 ± 2.2%
Cc1nc2ccccn2c(=O)c1CCN1CCC(C(=O)c2ccc(F)cc2)CC1 [Pirenperone],percent Bodipy-positive cells,,40.1 ± 3.5%
same,percent Bodipy-positive cells,library stock concentration: 5.1 mM,20.2 ± 7%
same,percent Bodipy-positive cells,[1],34.6% and 58.2%
Cc1nc2ccccn2c(=O)c1CCN1CCC(C(=O)c2ccc(F)cc2)CC1,percent Bodipy-positive cells,[1],25.7 ± 3.4%
Nc1ccc(-c2ccc3ncc4ccc(=O)n(-c5cccc(C(F)(F)F)c5)c4c3c2)cn1 [Torin 2],percent Bodipy-positive cells,[5],15.9 ± 1.2%
same,percent Bodipy-positive cells,[1],37.3 ± 5.3%
Nc1ccc(-c2ccc3ncc4ccc(=O)n(-c5cccc(C(F)(F)F)c5)c4c3c2)cn1 [Torin2],percent Bodipy-positive cells,[3],4.95 ± 1.7%
same,percent Bodipy-positive cells,[2],9.5 ± 6.4%
same,percent Bodipy-positive cells,[4],19.6 ± 12%
same,percent Bodipy-positive cells,[1],31.2 ± 9.6%
C(=C/CCN(C)C)(/c1c2cccc1)\c3c(cccc3)C=C2.Cl [Cyclobenzaprine hydrochloride],percent Bodipy-positive cells,[1],96.93 ± 0.23%
Nc1nc(N)c(N=O)c(OCC2CCCCC2)n1,percent Bodipy-positive cells,[5],27.6 ± 7.2%
same,percent Bodipy-positive cells,[1],16.6% and 13.6%
NC(=O)c1cnccn1 [Pyrazinamide],percent Bodipy-positive cells,,35.1 ± 3.7%
same,percent Bodipy-positive cells,[5],9.06 ± 1.3%
same,percent Bodipy-positive cells,[1],10.5% and 11.3%
same,percent Bodipy-positive cells,library stock concentration: 16.2 mM,15 ± 1.5%
NC(=O)c1cnccn1,percent Bodipy-positive cells,[1],31.3 ± 4.7%
NC(=O)c1cnccn1 [Pyrazinecarboxamide],percent Bodipy-positive cells,[1],16.8 ± 4.6%
CC(C)(C)CC(C)(C)c1cc(Cc2cc(C(C)(C)CC(C)(C)C)cc(-n3nc4ccccc4n3)c2O)c(O)c(-n2nc3ccccc3n2)c1,percent Bodipy-positive cells,[1],36.5 ± 2.9%
c1cn2cc(-c3ccc4cn[nH]c4c3)nc(Nc3ccc(N4CCOCC4)cc3)c2n1 [Entospletinib],percent Bodipy-positive cells,[4],91.6 ± 5.5%
same,percent Bodipy-positive cells,[1],92.7 ± 1.9%
CC(C)CCCCCCC/C=C\C(=O)O [cis-.DELTA.2-11-methyl-Dodecenoic Acid],percent Bodipy-positive cells,[6],20 ± 6.8%
Cc1cc2ncc(-c3ccccc3)nc2cc1C,percent Bodipy-positive cells,[5],10.2 ± 0.37%
Cn1cnc2c(F)c(Nc3ccc(Br)cc3F)c(C(=O)NOCCO)cc21,percent Bodipy-positive cells,[5],6.97 ± 1.3%
same,percent Bodipy-positive cells,[1],30.6 ± 8.1%
C#Cc1cccc(Nc2ncnc3cc(OCCOC)c(OCCO)cc23)c1,percent Bodipy-positive cells,[5],6.84 ± 1.5%
same,percent Bodipy-positive cells,[1],12.5 ± 0.9%
COc1cc(OC2CCN(C)CC2)ccc1Nc1ncc2c(n1)n(C1CCCC1)c(=O)n2C,percent Bodipy-positive cells,[1],91.2 ± 4.5%

# Pulled one by one from the entries so far, 5 records:
compound,measurement,setting,value
Cc1nc2ccccn2c(=O)c1CCN1CCC(C(=O)c2ccc(F)cc2)CC1 [Pirenperone],percent Bodipy-positive cells,,40.1 ± 3.5%
CCCCC[C@H](O)/C=C/[C@H]1[C@H](O)CC(=O)[C@@H]1C/C=C\CCCC(=O)O [Prostaglandin E2],percent Bodipy-positive cells,[1],6.94 ± 3%
CCCCC[C@H](O)/C=C/[C@H]1[C@H](O)CC(=O)[C@@H]1C/C=C\CCCC(=O)O [Dinoprostone],percent Bodipy-positive cells,library stock concentration: 5.7 mM,9.28 ± 1.2%
C=C[C@H]1CN2CC[C@H]1C[C@H]2[C@H](O)c1ccnc2ccc(OC)cc12 [Quinine],percent Bodipy-positive cells,library stock concentration: 6.2 mM,21.4 ± 0.69%
CCCCCCCCCCCCCCCCn1cc[n+](Cc2ccccc2)c1C,percent Bodipy-positive cells,[4],17.8 ± 7.1%
